According to the supplement of paper PMC12819154, “High-throughput peptide-centric local stability assay extends protein–ligand identification to membrane proteins, tissues and bacteria” (Nature Structural & Molecular Biology, 2025):
This is one part of the list. Most values lie at the level of the controls, where differences are scatter.

Chains of the proteins cited; added tags and fusions are not shown. Lines headed by an entry give the natural chain unless they say otherwise; changes in a name come on top.
UniProt O95817, whole entry: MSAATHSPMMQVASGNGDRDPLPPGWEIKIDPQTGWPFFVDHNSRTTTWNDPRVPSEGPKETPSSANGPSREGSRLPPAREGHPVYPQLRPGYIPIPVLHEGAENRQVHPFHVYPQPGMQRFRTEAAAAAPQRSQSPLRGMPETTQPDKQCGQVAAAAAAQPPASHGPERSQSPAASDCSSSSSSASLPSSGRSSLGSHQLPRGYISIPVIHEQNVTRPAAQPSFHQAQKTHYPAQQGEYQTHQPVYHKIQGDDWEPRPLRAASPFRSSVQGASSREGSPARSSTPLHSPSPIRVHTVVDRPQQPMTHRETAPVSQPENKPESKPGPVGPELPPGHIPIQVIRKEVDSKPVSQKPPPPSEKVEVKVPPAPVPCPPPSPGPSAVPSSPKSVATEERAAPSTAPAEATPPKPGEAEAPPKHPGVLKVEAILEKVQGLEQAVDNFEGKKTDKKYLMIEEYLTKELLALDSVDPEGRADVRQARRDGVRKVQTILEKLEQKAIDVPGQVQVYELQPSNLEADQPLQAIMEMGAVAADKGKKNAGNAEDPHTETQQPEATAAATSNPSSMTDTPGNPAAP
UniProt O95260: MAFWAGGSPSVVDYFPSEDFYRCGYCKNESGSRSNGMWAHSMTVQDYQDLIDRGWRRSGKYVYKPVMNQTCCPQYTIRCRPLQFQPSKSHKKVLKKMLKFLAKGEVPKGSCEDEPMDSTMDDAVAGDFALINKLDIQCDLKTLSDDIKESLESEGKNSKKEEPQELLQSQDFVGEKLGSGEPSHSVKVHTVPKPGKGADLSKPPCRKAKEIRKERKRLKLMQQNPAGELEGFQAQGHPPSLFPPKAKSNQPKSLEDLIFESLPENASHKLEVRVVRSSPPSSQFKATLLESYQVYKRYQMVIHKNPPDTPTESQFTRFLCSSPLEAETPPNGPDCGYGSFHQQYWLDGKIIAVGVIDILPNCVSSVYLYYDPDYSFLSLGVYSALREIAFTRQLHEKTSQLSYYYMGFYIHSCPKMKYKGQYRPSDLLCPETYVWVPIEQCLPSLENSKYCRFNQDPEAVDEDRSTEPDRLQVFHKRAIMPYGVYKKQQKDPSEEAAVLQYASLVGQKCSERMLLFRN
UniProt O75575: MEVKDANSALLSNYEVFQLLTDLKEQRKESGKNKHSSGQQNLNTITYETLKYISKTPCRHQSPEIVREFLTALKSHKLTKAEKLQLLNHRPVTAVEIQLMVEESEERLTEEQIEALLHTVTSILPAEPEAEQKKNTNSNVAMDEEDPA
UniProt O95295: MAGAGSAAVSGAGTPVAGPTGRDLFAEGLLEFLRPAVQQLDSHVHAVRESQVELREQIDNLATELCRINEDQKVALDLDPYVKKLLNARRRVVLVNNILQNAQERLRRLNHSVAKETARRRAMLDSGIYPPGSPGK
UniProt O75683: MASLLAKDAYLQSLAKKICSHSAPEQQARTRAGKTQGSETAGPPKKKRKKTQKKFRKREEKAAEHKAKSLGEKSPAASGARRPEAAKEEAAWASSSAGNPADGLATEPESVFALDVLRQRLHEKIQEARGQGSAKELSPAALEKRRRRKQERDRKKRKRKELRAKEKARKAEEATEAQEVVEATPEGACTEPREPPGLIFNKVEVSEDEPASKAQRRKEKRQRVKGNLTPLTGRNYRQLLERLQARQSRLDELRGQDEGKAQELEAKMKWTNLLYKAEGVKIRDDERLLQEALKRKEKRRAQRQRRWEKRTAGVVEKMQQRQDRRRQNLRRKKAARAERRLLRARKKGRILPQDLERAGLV
UniProt O95201: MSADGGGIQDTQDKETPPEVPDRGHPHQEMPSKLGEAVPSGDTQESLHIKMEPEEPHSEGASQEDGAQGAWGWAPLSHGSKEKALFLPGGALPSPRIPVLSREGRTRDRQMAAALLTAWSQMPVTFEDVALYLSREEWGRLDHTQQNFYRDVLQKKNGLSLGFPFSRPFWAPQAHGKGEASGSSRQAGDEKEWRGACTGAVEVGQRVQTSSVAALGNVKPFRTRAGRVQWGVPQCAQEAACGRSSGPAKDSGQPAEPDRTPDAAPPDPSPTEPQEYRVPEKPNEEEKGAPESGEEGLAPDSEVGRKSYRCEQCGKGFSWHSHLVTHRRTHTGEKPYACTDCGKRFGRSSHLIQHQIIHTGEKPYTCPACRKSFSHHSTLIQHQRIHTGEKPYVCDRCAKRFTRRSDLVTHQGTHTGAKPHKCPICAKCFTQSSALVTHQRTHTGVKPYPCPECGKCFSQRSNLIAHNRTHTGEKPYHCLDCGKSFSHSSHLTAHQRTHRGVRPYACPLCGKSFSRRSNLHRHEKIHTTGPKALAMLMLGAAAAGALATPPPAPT
UniProt O75530, whole entry, looked up: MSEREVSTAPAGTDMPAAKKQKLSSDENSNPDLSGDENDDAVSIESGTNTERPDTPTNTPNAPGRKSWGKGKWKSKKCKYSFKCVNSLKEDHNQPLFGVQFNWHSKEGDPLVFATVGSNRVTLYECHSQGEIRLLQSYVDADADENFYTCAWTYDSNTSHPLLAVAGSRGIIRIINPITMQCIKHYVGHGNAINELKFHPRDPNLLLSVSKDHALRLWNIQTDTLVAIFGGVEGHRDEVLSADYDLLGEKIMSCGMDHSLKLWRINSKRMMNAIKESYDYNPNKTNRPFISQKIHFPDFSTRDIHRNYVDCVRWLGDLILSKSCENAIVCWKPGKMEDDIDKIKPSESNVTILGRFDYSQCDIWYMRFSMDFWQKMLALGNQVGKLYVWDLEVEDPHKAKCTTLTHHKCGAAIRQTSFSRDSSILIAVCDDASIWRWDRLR
UniProt O75971: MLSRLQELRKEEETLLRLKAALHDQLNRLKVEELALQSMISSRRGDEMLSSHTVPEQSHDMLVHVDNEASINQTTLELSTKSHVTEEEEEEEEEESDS
UniProt O75792: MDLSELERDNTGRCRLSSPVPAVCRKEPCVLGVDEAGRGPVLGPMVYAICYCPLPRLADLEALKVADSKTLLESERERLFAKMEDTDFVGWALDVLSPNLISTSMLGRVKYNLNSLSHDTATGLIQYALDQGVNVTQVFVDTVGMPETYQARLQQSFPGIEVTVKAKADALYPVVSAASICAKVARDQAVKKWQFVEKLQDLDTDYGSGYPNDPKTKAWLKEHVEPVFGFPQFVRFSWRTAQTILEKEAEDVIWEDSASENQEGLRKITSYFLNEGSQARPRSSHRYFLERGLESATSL
UniProt O94829: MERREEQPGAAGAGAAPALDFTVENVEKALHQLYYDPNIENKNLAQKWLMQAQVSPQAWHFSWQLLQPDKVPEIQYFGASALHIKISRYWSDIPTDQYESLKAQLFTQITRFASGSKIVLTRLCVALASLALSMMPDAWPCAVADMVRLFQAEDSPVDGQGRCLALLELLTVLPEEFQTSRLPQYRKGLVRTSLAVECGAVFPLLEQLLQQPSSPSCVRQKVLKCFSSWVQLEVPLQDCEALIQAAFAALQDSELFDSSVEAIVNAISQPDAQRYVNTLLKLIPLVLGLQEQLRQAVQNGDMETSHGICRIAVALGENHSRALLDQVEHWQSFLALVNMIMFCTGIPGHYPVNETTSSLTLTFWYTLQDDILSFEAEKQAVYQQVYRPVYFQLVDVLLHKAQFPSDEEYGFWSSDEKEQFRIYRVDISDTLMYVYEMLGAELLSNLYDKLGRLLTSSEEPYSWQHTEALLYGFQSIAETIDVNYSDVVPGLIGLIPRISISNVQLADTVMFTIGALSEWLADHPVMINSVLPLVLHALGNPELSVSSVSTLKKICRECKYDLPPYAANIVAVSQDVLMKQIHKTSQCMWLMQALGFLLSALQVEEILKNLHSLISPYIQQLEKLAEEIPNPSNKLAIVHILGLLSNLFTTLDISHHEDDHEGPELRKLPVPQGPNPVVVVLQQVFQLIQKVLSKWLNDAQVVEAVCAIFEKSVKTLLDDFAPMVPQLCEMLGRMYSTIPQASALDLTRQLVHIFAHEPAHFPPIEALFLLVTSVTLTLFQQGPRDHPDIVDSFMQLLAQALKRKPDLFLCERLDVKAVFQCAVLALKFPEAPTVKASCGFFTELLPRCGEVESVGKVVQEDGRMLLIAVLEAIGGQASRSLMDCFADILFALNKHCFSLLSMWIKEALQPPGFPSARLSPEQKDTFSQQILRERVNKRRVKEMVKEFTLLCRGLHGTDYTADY
UniProt O95985: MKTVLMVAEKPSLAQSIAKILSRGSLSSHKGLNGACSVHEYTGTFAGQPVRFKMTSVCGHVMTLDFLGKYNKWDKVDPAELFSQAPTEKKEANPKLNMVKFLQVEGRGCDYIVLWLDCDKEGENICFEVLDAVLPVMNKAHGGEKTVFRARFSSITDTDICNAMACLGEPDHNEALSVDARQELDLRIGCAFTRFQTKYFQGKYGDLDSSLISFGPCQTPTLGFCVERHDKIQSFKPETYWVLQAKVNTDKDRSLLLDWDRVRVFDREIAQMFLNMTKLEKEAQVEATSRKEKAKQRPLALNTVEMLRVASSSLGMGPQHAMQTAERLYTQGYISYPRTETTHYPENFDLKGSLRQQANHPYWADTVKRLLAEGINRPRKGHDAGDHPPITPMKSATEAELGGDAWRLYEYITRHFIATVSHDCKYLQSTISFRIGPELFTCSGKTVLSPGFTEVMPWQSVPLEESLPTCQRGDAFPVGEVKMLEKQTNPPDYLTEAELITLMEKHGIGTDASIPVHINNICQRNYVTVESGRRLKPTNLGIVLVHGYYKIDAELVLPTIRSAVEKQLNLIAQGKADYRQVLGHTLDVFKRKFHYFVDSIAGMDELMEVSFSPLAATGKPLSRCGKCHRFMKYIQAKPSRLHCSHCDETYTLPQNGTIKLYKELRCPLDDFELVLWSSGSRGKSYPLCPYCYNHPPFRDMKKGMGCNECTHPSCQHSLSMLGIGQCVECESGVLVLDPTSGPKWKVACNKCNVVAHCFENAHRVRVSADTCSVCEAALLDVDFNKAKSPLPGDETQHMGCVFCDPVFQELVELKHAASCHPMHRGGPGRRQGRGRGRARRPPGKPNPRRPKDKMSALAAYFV
UniProt O75486: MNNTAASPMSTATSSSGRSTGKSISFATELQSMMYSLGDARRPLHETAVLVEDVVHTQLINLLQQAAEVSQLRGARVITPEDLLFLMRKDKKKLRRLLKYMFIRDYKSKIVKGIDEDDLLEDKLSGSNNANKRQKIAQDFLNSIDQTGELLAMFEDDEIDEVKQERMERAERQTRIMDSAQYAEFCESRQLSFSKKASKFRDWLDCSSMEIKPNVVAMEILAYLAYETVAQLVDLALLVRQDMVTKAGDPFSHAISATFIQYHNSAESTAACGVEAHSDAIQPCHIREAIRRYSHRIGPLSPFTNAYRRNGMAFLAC
UniProt O75533, whole entry: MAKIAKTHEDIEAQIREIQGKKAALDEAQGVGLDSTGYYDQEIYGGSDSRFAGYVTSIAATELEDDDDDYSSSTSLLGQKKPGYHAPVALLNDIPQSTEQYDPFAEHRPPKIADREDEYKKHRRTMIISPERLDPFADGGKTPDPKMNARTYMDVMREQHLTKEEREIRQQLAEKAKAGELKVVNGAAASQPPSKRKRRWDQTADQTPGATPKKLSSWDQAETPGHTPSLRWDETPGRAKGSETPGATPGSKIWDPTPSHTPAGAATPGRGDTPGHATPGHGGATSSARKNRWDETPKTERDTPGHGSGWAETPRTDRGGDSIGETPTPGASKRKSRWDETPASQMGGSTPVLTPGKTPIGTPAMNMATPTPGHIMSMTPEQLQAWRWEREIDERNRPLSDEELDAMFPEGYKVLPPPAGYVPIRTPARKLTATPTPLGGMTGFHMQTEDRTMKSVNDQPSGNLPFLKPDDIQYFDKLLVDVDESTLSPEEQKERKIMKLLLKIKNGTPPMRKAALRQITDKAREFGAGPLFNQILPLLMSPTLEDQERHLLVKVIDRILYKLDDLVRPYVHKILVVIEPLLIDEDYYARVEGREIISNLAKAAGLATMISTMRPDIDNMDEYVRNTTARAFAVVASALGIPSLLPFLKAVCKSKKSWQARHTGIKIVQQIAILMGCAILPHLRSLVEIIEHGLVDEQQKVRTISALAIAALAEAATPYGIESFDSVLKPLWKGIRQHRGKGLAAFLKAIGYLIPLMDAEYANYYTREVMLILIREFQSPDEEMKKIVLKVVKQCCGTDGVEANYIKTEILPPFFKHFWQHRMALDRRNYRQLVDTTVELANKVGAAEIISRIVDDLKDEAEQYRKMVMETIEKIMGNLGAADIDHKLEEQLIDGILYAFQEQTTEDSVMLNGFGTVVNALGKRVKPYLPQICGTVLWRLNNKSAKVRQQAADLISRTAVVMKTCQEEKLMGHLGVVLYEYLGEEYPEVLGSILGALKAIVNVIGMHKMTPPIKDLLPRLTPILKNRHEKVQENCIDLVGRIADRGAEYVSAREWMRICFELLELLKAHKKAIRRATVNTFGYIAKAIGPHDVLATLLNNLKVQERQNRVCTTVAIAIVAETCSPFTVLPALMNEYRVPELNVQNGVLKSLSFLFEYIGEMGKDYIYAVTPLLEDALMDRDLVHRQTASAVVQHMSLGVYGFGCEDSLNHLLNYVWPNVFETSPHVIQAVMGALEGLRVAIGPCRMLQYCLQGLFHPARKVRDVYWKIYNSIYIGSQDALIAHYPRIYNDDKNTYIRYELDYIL

Compound: CN[C@@H]1C[C@H]2O[C@@](C)([C@@H]1OC)n1c3ccccc3c3c4c(c5c6ccccc6n2c5c31)C(=O)NC4 [staurosporine]
Assay: log2 fold change of tryptic peptide abundance, ligand vs vehicle (limited proteolysis) (log2 ratio); higher = more trypsin-susceptible (destabilized)
Conditions: ligand concentration: 20 uM; sample: K562 cleared lysate; digestion: 4 min, 22 C (HT-PELSA RT4min, Orbitrap Astral)

| Target | log2 fold change |
| --- | --- |
| BAG3 (peptide sequence: SSLGSHQLPR, peptide start residue: 194) (UniProt O95817) | 0.259 |
| ATE1 (peptide sequence: GADLSKPPCR, peptide start residue: 197) (UniProt O95260) | 0.285 |
| PIAS1 (peptide sequence: KHELLTK, peptide start residue: 34) (UniProt O75925) | 0.552 |
| POP4 (peptide sequence: LFDIKPEQQR, peptide start residue: 86) (UniProt O95707) | 0.483 |
| RNF8 (peptide sequence: GEPGFFVTGDR, peptide start residue: 2) (UniProt O76064) | -0.274 |
| RSL1D1 (peptide sequence: SDSEDICLFTK, peptide start residue: 90) (UniProt O76021) | -0.71 |
| DDAH2 (peptide sequence: EFFVGLSK, peptide start residue: 135) (UniProt O95865) | -0.18 |
| WIZ (peptide sequence: PGLLSLAKPLDAPAVNK, peptide start residue: 948) (UniProt O95785) | -0.717 |
| CRCP (peptide sequence: HSSGQQNLNTITYETLK, peptide start residue: 35) (UniProt O75575) | -0.271 |
| SNAPIN (peptide sequence: RLNHSVAK, peptide start residue: 108) (UniProt O95295) | 0.553 |
| TRIM3 (peptide sequence: SPGGPGSHVR, peptide start residue: 437) (UniProt O75382) | 0.356 |
| SURF6 (peptide sequence: TQGSETAGPPK, peptide start residue: 35) (UniProt O75683) | -0.115 |
| GGPS1 (peptide sequence: ILLEPYK, peptide start residue: 11) (UniProt O95749) | -0.165 |
| UniProt O95201 (peptide sequence: GACTGAVEVGQR, peptide start residue: 195) | -0.358 |
| MAP4K4 (peptide sequence: NYMQRPSTEQLLK, peptide start residue: 273) (UniProt O95819) | -0.204 |
| UniProt O75530 (peptide sequence: IHFPDFSTR, peptide start residue: 294) | 0.559 |
| SNAPC5 (peptide sequence: LKVEELALQSMISSR, peptide start residue: 29) (UniProt O75971) | 0.253 |
| LETM1 (peptide sequence: STLQTLPEIVAK, peptide start residue: 435) (UniProt O95202) | -0.311 |
| UniProt O94953 (peptide sequence: AAFNQEHVSCQQAFEHFAQK, peptide start residue: 538) | -0.667 |
| MTRF1 (peptide sequence: YMENLSK, peptide start residue: 78) (UniProt O75570) | 0.195 |
| RNASEH2A (peptide sequence: LQQSFPGIEVTVK, peptide start residue: 153) (UniProt O75792) | 0.615 |
| IPO13 (peptide sequence: AQLFTQITR, peptide start residue: 103) (UniProt O94829) | 0.17 |
| UniProt O95251 (peptide sequence: CPTPGCNSLGHLTGK, peptide start residue: 185) | 0.354 |
| TOP3B (peptide sequence: MSALAAYFV, peptide start residue: 854) (UniProt O95985) | 0.555 |
| SUPT3H (peptide sequence: GIDEDDLLEDKLSGSNNANKR, peptide start residue: 113) (UniProt O75486) | -0.167 |
| SF3B1 (peptide sequence: AIVNVIGMHK, peptide start residue: 999) (UniProt O75533) | 0.191 |
| E2F6 (peptide sequence: EDSITVHIR, peptide start residue: 217) (UniProt O75461) | -0.465 |
| UniProt O75820 (peptide sequence: VHTGEKPFQCNECGK, peptide start residue: 169) | -0.473 |
| MTA2 (peptide sequence: TPTQLEGATR, peptide start residue: 406) (UniProt O94776) | 0.358 |

Rewritten comma-delimited: entries from further up
Target,log2 fold change
"POP4 (peptide sequence: LFDIKPEQQR, peptide start residue: 86) (UniProt O95707)",0.483
"RNF8 (peptide sequence: GEPGFFVTGDR, peptide start residue: 2) (UniProt O76064)",-0.274
